Data source: PubChem BioAssay AID686943 (Drosophila RNAi Screening Center, 2013)
Test: 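Knockdowns that increase or decrease active ERK after insulin receptor stimulation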 (primary screen). Cells: Drosophila S2R+ haemocyte-like cells expressing YFP-tagged ERK (Rolled). Reagent: long dsRNA against Drosophila genes. Challenge: insulin stimulation versus unstimulated cells; dose and duration not given. Measured: 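Per-plate z-scores of phospho-ERK immunostaining normalised to YFP-tagged ERK, measured with and without insulin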. Direction: replicate 1, z-score of dpERK with insulin: higher = more active ERK per ERK-YFP after insulin.
In all, the deposit lists about 23,000 reagents; this is a random part of those with a known target gene and a result. 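Extra replicates exist only for a retested subset of genes; insulin dose and duration not given; both raised and lowered dpERK matter.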 The numbers tell different reagents against one gene apart. Not all columns of the deposit are shown. No sequences are given here. Not stated in the record: the amount of reagent, the time to read-out.

replicate 1, z-score of dpERK with insulin, by gene and reagent
Ddrgk1: #1 -0.27
Kaz-m1: #1 0.35
MED6: #1 1.85
Schip1: #1 -0.29
pb: #1 0.05; #2 -0.28
Dhc62B: #1 -0.81
CG34210: #1 0.43
lncRNA:CR42859: #1 0.92
Gr36a: #1 -0.25
CG7079: #1 0.1
fau: #1 -0.16; #2 0.69; #3 -0.35; #4 -0.41; #5 0.93; #6 0.52

Entries listed so far whose target name begins with C or c:
replicate 1, z-score of dpERK with insulin, by gene and reagent
CG34210: #1 0.43
CG7079: #1 0.1

The listing continues.
replicate 1, z-score of dpERK with insulin, by gene and reagent
Icmt: #1 0.38
CG8944: #1 -0.5; #2 0.32
Obp56i: #1 -0.5
CG45002: #1 0.11
sba: #1 -0.72; #2 0.91
CG11902: #1 0.12
RasGAP1: #1 -0.41
CG9171: #1 -0.14; #2 -3.31
pck: #1 -0.74
Cyp6t3: #1 -0.96
Echs1: #1 0.16
CG17122: #1 0.31
Pus7: #1 0.58
CG13473: #1 0.29
CG11384: #1 -0.43
DIP-kappa: #1 -3.26; #2 -0.4
CG11617: #1 -0.45; #2 -0.46
